Source: patent US8236848B2, “Diindolylmethane for the treatment of HPV infection” (BioResponse, L.L.C., priority 2001, dated 2012)
At least one structure is not confirmed: it was looked up by name or label, or the drawing left a doubt.

Experiments:
Format in all cases: in vivo, human
[1] = system: cutaneous warts (verrucae vulgaris); assay: Oral Diindolylmethane with Pregnenolone for cutaneous warts (case six); conditions: patient six
[2] = system: HPV infection of the tongue; assay: Oral Diindolylmethane for HPV infection of the tongue (case five); conditions: patient five
[3] = system: genital warts (condyloma accuminatum); assay: Oral Diindolylmethane for genital warts (case seven); conditions: patient seven
[4] = system: HPV-related vaginal dysplasia; assay: Oral Diindolylmethane for HPV-related vaginal dysplasia (case three); conditions: patient three
[5] = system: Recurrent Laryngeal Papillomatosis (RRP); assay: Oral therapy of Recurrent Laryngeal Papillomatosis in a child (case one); conditions: child A. L.
Method: The following describes oral Diindolylmethane therapy for the Recurrent Laryngeal Papillomatosis (RRP), a rare condition in which wart like lesions develop in and around the larynx and vocal cords in association with HPV. patient one is a child with RRP. They were diagnosed with RRP. Before Diindolylmethane therapy they had undergone 21 laryngoscopic surgical procedures for recurrent laryngeal papillomas compromising their airway. […] Tracheostomy was performed in 1998 to provide a more secure airway. Diindolylmethane in an absorbable formulation according to U.S. Pat. No. […] Surgical frequency increased immediately to two months.

c1ccc2c(Cc3c[nH]c4ccccc34)c[nH]c2c1 [Diindolylmethane]
Response of palmar warts ([1]; 75 increased to 150 mg/day over 6 weeks, until Pregnenolone was added): No improvement
Recurrence of palmar warts on reduced dose ([1]; daily intake reduced to 75 mg/day, 4 subsequent months): remained free of all palmar warts
Response of tongue lesions ([2]; 75 mg/day (300 mg/day formulation), after 2 weeks): clear improvement with reduction in lesion size
Lesions after suspension of therapy ([2]; 75 mg/day suspended after one month): return of lesions
Response of tongue lesions ([2]; 112 mg/day (450 mg/day formulation), total of 2 months): Full resolution
Recurrence during continued use ([2]; 37.5 to 75 mg/day, subsequent two-year period): No recurrence
Repeat swab of the tongue for presence of HPV DNA ([2]; after two years of treatment): negative
Uterine cervix appearance and Papincolou Smear ([3]; mild cervical dysplasia at start, 112 mg/day, 2 months): returned to a normal appearance
Response of genital warts on reexamination ([3]; 75 mg/day actual (300 mg/day formulated), two months): no improvement
Response of genital warts at pre-operative exam ([3]; 112 mg/day actual (450 mg/day formulated), 2 months): complete resolution of all genital warts
Recurrence after end of therapy ([3]; 6 months later without further therapy): remained free of recurrent lesions
Repeat vaginal biopsy ([4]; moderate vaginal dysplasia, 75 mg/day actual (300 mg/day formulated), 3 months): persistent, moderate dysplasia
Physical exams on lowered dose ([4]; 37.5 mg/day actual (150 mg/day formulated), 1.5 subsequent years): remained normal
Third vaginal biopsy (vaginal mucosa) ([4]; 150 mg/day actual (600 mg/day formulated), one month): returned to normal
Existing papillomas ([5]; 2-3 mg/kg/day, after 5 months, no new papillomas noted): spontaneously resolved
Papilloma status ([5]; 14 months past the start of Diindolylmethane): free of papillomas
Surgical frequency ([5]; Diindolylmethane 2-3 mg/kg/day in absorbable formulation, immediately after start): two
Efficacy compared with I3C ([5]; I3C used at its maximal reported tolerated dose): increased efficacy over I3C
Papilloma status of larynx and trachea ([5]; examination under anesthesia in March, 2000 (start June 1998)): completely free of papillomas
